Assay results

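Plate-reader measure of the Venus reporter marking one vaccinia stage in infected cells (the cell line is not named here); read time unknown.
The test concentration is not given here.
Percent change in Venus reporter signal; lower (more negative) values mean stronger inhibition of that viral stage.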

Values are in %.
The controls that fix the scale are not given here.
Common to all entries: measured here: Venus reporter, other viral stage.
Part of the compounds only, not a random draw; the main read-out is not listed here.

Compound	activity change (Venus) (%)
Cc1ccc(S(=O)(=O)N2CC[C@@H]3[C@@H](CO)N(C)c4ccc(-c5cccc(C#N)c5)cc4[C@@H]32)cc1	-25.85
C[C@@H]1CN([C@@H](C)CO)S(=O)(=O)c2ccc(C#CC3CC3)cc2O[C@H]1CN(C)Cc1ccc(F)cc1	-41.76
C[C@@H]1CCCCO[C@H](CN(C)Cc2ccc(C(F)(F)F)cc2)[C@H](C)CN([C@H](C)CO)C(=O)c2cc(NC(=O)CCCN(C)C)ccc2O1	-89.27
O=C(C[C@@H]1CC[C@H]2[C@@H](COC[C@H](O)CN2C(=O)c2ccc(F)cc2)O1)Nc1ccc(-c2ccccc2)cc1	-21.25
C[C@@H]1CCCCO[C@@H](CN(C)C(=O)NC2CCCCC2)[C@H](C)CN([C@@H](C)CO)C(=O)c2cc(NS(=O)(=O)c3ccc(F)cc3)ccc2O1	-41.43
C[C@@H]1CN([C@@H](C)CO)C(=O)c2cc(NC(=O)Nc3cccc4ccccc34)ccc2O[C@H]1CN(C)Cc1ccc(C(F)(F)F)cc1	-21.29
N#Cc1cccc(-c2ccc3c(c2)[C@@H]2[C@@H](CCN2Cc2ccc4c(c2)OCO4)[C@@H](CO)N3)c1	-17.73
Cc1ccc(S(=O)(=O)Nc2ccc3c(c2)C(=O)N([C@H](C)CO)C[C@@H](C)[C@H](CN(C)S(=O)(=O)c2ccc(F)cc2)OCCCC[C@@H](C)O3)cc1	-45.57
C[C@@H]1CN([C@@H](C)CO)C(=O)c2c(c3ccccc3n2C)-c2ccccc2CO[C@@H]1CN(C)C(=O)[C@@H](Cc1ccccc1)N(C)C	-48.17
C[C@H](CO)N1C[C@H](C)[C@@H](CN(C)Cc2cccnc2)Oc2cc(C#CC3CCCC3)ccc2S1(=O)=O	-63.98
O=C(Nc1cccc(F)c1)N1CCCCN2[C@H](CO)[C@@H](c3ccc(C#Cc4ccccc4)cc3)[C@H]2C1	-58.72
Cc1ccc(S(=O)(=O)N(C)C[C@@H]2Oc3cc(Br)ccc3S(=O)(=O)N([C@@H](C)CO)C[C@H]2C)cc1	-43.89
C[C@@H]1CN([C@H](C)CO)C(=O)c2cc(NS(=O)(=O)c3ccc(F)cc3)ccc2O[C@@H]1CN(C)Cc1ccc(-c2ccccc2)cc1	-37.35
Cc1ccccc1S(=O)(=O)N1C[C@@H]2N[C@H](C1)C2c1ccc(-c2ccc(C#N)cc2)cc1 (stereo partly drawn)	-76.6
C[C@@H]1CN([C@H](C)CO)C(=O)c2cccc(NC(=O)C3CCCCC3)c2O[C@@H]1CN(C)C(=O)Nc1ccc(C(F)(F)F)cc1	-62.07
C[C@@H]1CN([C@@H](C)CO)C(=O)Cc2cc(NS(=O)(=O)c3ccccc3)ccc2O[C@@H]1CN(C)Cc1ccc(Oc2ccccc2)cc1	-31.14
C[C@H](CO)N1C[C@H](C)[C@@H](CN(C)Cc2ccc(Oc3ccccc3)cc2)Oc2c(NS(=O)(=O)c3ccc(Cl)cc3)cccc2C1=O	-32.43
CNC[C@@H]1Oc2cc(-c3ccc(C)cc3)ccc2S(=O)(=O)N([C@@H](C)CO)C[C@H]1C	-15.39
COc1ccc2c3c([nH]c2c1)[C@@H](CO)N(S(=O)(=O)c1cn(C)cn1)CC31CCN(Cc2ccccc2F)CC1	-34.87
O=C(c1ccccc1)N1CC(=O)N2[C@H](C1)[C@H](c1ccc(C#CCC3CCCC3)cc1)[C@@H]2CO	-68.31
CN1c2ccc(-c3ccc(F)cc3)cc2[C@@H]2[C@@H](CCN2S(=O)(=O)c2cccc(F)c2)[C@H]1CO	-31.16
COc1ccccc1C#Cc1ccc2c(c1)O[C@@H](CN(C)Cc1cccnc1)[C@H](C)CN([C@@H](C)CO)S2(=O)=O	-54.6
O=C(Nc1cccc(F)c1)N1CCCCN2[C@H](CO)[C@H](c3ccc(C#CC4CC4)cc3)[C@H]2C1	-95.95
Cc1ccccc1-c1ccc2c(c1)O[C@H](CN(C)Cc1ccncc1)[C@@H](C)CN([C@@H](C)CO)S2(=O)=O	-62.47
CCCC#Cc1ccc([C@H]2[C@@H](CO)N3CCCCN(S(=O)(=O)Cc4ccccc4)C[C@H]23)cc1	-53.19
COC(=O)[C@@]1(CCS(=O)(=O)c2ccccc2)N=C(c2ccc(OCCCO)cc2)O[C@H]1c1ccccc1N=[N+]=[N-]	-53.75
C[C@H](CO)N1C[C@H](C)[C@@H](CN(C)C(=O)Nc2ccc3c(c2)OCO3)Oc2c(NC(=O)Nc3ccc(C(F)(F)F)cc3)cccc2C1=O	-19
C[C@H](CO)N1C[C@H](C)[C@@H](CN(C)Cc2ccccc2)Oc2ccc(NC(=O)Nc3ccc(F)cc3)cc2CC1=O	-35.73
C[C@@H]1CN([C@@H](C)CO)C(=O)c2ccccc2-c2ccccc2CO[C@H]1CN(C)S(=O)(=O)c1ccc(C(F)(F)F)cc1	-42.7
C[C@H](CO)N1C[C@H](C)[C@@H](CN(C)S(=O)(=O)c2ccccc2)OCCCC[C@H](C)Oc2ccc(NS(=O)(=O)c3ccc(F)cc3)cc2C1=O	-32.33
C[C@H](NC(=O)C[C@H]1CC[C@@H]2[C@H](COC[C@@H](O)CN2C(=O)Nc2cc(Cl)cc(Cl)c2)O1)c1ccccc1	-65.84
COc1ccc([Si](C)(C)[C@@H]2[C@@H](CCn3cc(CCO)nn3)O[C@]3(C(=O)N(c4ccccc4)c4ccccc43)[C@H]2C)cc1	-81.74
C[C@@H]1CN([C@@H](C)CO)S(=O)(=O)c2ccc(C#Cc3ccc(F)cc3)cc2O[C@H]1CN(C)C(=O)NC1CCCCC1	-43.93
C[C@H]1CCCCO[C@H](CN(C)CC2CCCCC2)[C@@H](C)CN([C@@H](C)CO)C(=O)c2cc(NS(=O)(=O)c3cccs3)ccc2O1	-44.78
C[C@@H]1CCCCO[C@H](CN(C)Cc2ccc3c(c2)OCO3)[C@H](C)CN([C@@H](C)CO)C(=O)c2cc(NC(=O)CCC(F)(F)F)ccc2O1	-37.41
COc1ccc(NC(=O)Nc2ccc3c(c2)CC(=O)N([C@@H](C)CO)C[C@@H](C)[C@@H](CN(C)Cc2ccccc2)O3)cc1	-25.14

3 of the entries, repeated:

For CN1c2ccc(-c3ccc(F)cc3)cc2[C@@H]2[C@@H](CCN2S(=O)(=O)c2cccc(F)c2)[C@H]1CO the result was activity change (Venus) -31.16%.
For COc1ccc2c3c([nH]c2c1)[C@@H](CO)N(S(=O)(=O)c1cn(C)cn1)CC31CCN(Cc2ccccc2F)CC1 the result was activity change (Venus) -34.87%.
For N#Cc1cccc(-c2ccc3c(c2)[C@@H]2[C@@H](CCN2Cc2ccc4c(c2)OCO4)[C@@H](CO)N3)c1 the result was activity change (Venus) -17.73%.

From PubChem BioAssay record AID1053133 (Broad Institute, 2014).